Source: the supplement of paper PMC8728848
The list shows a part of the results.

Key:
Assay in all cases: glycan array binding signal (z-score within array); higher = stronger binding
Conditions in all cases: glycan notation: IUPAC condensed, linker removed
[1] = biological target: Fuc(a1-2)Gal
Procedure, shortened: (§1)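 Glycan array data were curated from 3228 arrays in the Consortium for Functional Glycomics database and kept only where the protein sequence was available. Glycan names were converted to IUPAC-condensed notation, and columns mapping to the same glycan were averaged. The binding signal is a within-array Z-score, averaged across arrays of the same protein sequence at different concentrations or buffers and across linkers. Negative Z-scores can be read as non-binding.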

[2] = biological target: Fuc(a1-2)Gal(b1-3)GalNAc
Procedure, shortened: as §1

[3] = biological target: Fuc(a1-2)Gal(b1-3)GalNAc(a1-3)[Fuc(a1-2)]Gal(b1-4)Glc
Procedure, shortened: as §1

[4] = biological target: Fuc(a1-2)Gal(b1-3)GalNAc(a1-3)[Fuc(a1-2)]Gal(b1-4)GlcNAc
Procedure, shortened: as §1

[5] = biological target: Fuc(a1-2)Gal(b1-3)GalNAc(b1-3)Gal
Procedure, shortened: as §1

[6] = biological target: Fuc(a1-2)Gal(b1-3)GalNAc(b1-3)Gal(a1-4)Gal(b1-4)Glc
Procedure, shortened: as §1

[7] = biological target: Fuc(a1-2)Gal(b1-3)GalNAc(b1-4)[Neu5Ac(a2-3)]Gal(b1-4)Glc
Procedure, shortened: as §1

[8] = biological target: Fuc(a1-2)Gal(b1-3)GlcNAc
Procedure, shortened: as §1

[9] = biological target: Fuc(a1-2)Gal(b1-3)GlcNAc(b1-2)Man(a1-3)[Fuc(a1-2)Gal(b1-3)GlcNAc(b1-2)Man(a1-6)]Man(b1-4)GlcNAc(b1-4)GlcNAc
Procedure, shortened: as §1

[10] = biological target: Fuc(a1-2)Gal(b1-3)GlcNAc(b1-2)Man(a1-3)[Fuc(a1-2)Gal(b1-3)GlcNAc(b1-2)Man(a1-6)]Man(b1-4)GlcNAc(b1-4)[Fuc(a1-6)]GlcNAc
Procedure, shortened: as §1

[11] = biological target: Fuc(a1-2)Gal(b1-3)GlcNAc(b1-3)Gal(b1-4)Glc
Procedure, shortened: as §1

[12] = biological target: Fuc(a1-2)Gal(b1-3)GlcNAc(b1-3)GalNAc
Procedure, shortened: as §1

[13] = biological target: Fuc(a1-2)Gal(b1-3)GlcNAc(b1-3)[Fuc(a1-2)Gal(b1-3)GlcNAc(b1-6)]GalNAc
Procedure, shortened: as §1

[14] = biological target: Fuc(a1-2)Gal(b1-3)GlcNAc(b1-3)[Gal(b1-4)GlcNAc(b1-6)]Gal(b1-4)Glc
Procedure, shortened: as §1

[15] = biological target: Fuc(a1-2)Gal(b1-3)GlcNAc(b1-3)[Neu5Ac(a2-6)Gal(b1-4)GlcNAc(b1-6)]Gal(b1-4)Glc
Procedure, shortened: as §1

[16] = biological target: Fuc(a1-2)Gal(b1-3)GlcNAc6S
Procedure, shortened: as §1

[17] = biological target: Fuc(a1-2)Gal(b1-3)[Fuc(a1-4)]GlcNAc
Procedure, shortened: as §1

[18] = biological target: Fuc(a1-2)Gal(b1-3)[Fuc(a1-4)]GlcNAc(b1-2)Man(a1-3)[Fuc(a1-2)Gal(b1-3)[Fuc(a1-4)]GlcNAc(b1-2)Man(a1-3)]Man(b1-4)GlcNAc(b1-4)GlcNAc
Procedure, shortened: as §1

[19] = biological target: Fuc(a1-2)Gal(b1-3)[Fuc(a1-4)]GlcNAc(b1-2)Man(a1-3)[Fuc(a1-2)Gal(b1-3)[Fuc(a1-4)]GlcNAc(b1-2)Man(a1-6)]Man(b1-4)GlcNAc(b1-4)[Fuc(a1-6)]GlcNAc(b1-4)[Fuc(a1-6)]GlcNAc
Procedure, shortened: as §1

[20] = biological target: Fuc(a1-2)Gal(b1-3)[Fuc(a1-4)]GlcNAc(b1-3)[Fuc(a1-3)[Gal(b1-4)]GlcNAc(b1-6)]Gal(b1-4)Glc
Procedure, shortened: as §1

[21] = biological target: Fuc(a1-2)Gal(b1-3)[Fuc(a1-4)]GlcNAc(b1-3)[Gal(b1-4)GlcNAc(b1-6)]Gal(b1-4)Glc
Procedure, shortened: as §1

[22] = biological target: Fuc(a1-2)Gal(b1-4)Glc
Procedure, shortened: as §1

[23] = biological target: Fuc(a1-2)Gal(b1-4)Glc6S
Procedure, shortened: as §1

[24] = biological target: Fuc(a1-2)Gal(b1-4)GlcNAc
Procedure, shortened: as §1

[25] = biological target: Fuc(a1-2)Gal(b1-4)GlcNAc(b1-2)Man
Procedure, shortened: as §1

[26] = biological target: Fuc(a1-2)Gal(b1-4)GlcNAc(b1-2)Man(a1-3)[Fuc(a1-2)Gal(b1-4)GlcNAc(b1-2)Man(a1-6)]Man(b1-4)GlcNAc(b1-4)GlcNAc
Procedure, shortened: as §1

[27] = biological target: Fuc(a1-2)Gal(b1-4)GlcNAc(b1-2)Man(a1-3)[Fuc(a1-2)Gal(b1-4)GlcNAc(b1-2)Man(a1-6)]Man(b1-4)GlcNAc(b1-4)[Fuc(a1-6)]GlcNAc
Procedure, shortened: as §1

[28] = biological target: Fuc(a1-2)Gal(b1-4)GlcNAc(b1-2)[Fuc(a1-2)Gal(b1-4)GlcNAc(b1-4)]Man(a1-3)[Fuc(a1-2)Gal(b1-4)GlcNAc(b1-2)Man(a1-6)]Man(b1-4)GlcNAc(b1-4)GlcNAc
Procedure, shortened: as §1

[29] = biological target: Fuc(a1-2)Gal(b1-4)GlcNAc(b1-3)Gal(b1-4)GlcNAc
Procedure, shortened: as §1

[30] = biological target: Fuc(a1-2)Gal(b1-4)GlcNAc(b1-3)Gal(b1-4)GlcNAc(b1-2)Man(a1-3)[Fuc(a1-2)Gal(b1-4)GlcNAc(b1-3)Gal(b1-4)GlcNAc(b1-2)Man(a1-6)]Man(b1-4)GlcNAc(b1-4)GlcNAc
Procedure, shortened: as §1

B1: PX9961Q-bfa-504-27-504 (Bacteroides fragilis) (protein)
chain: NDWLDRKPADGIPSEDAITNYNDALTARTGMYDGIQGNSNATSYYGARMFYYGDVRADDMQARTQGMRSSSCYEMLYTVDDAPNMWNIPYNVIRRANRLIEAINEKKVTDATEAQIGKIYSEALVVRALVHFDLVRIYGMPYTADNGASLGVPVIVKPLERNDLPSRNTVAEVYTQVITDLTDAINSGYLAKDQTPGYINEWAAKALLTRVYLTKGDNENALKVAEDIITNSPYKLWTNEEYVNAWYKSNGAHTNEMIFEVVNASNDDWTDRNGIAYLLNENGYADAIVTKSFMNMLSQDPKDVRIGMVLPAQYDKDLQEEYGDAKIFINKFPADKDDVGEMRLNNLPLLRLSEVYLSAAEAAAKLGGHQDKAAKYLNEIVQRANPEAKAISEADATVERIILERRKEMIGEGQRYFDALRNNETIVRYKDEGDKGYHYSLIKESQSFDRTYFRAILPIPVDETNVNPNLRAQQNPGY
glycan array binding signal (z-score) [1]: -0.522 | glycan array binding signal (z-score) [2]: -0.893 | glycan array binding signal (z-score) [3]: -0.312 | glycan array binding signal (z-score) [4]: -0.275 | glycan array binding signal (z-score) [5]: 0.241 | glycan array binding signal (z-score) [6]: -1.11 | glycan array binding signal (z-score) [7]: 0.477 | glycan array binding signal (z-score) [8]: -0.986 | glycan array binding signal (z-score) [9]: 2.69 | glycan array binding signal (z-score) [10]: -0.241 | glycan array binding signal (z-score) [11]: 0.015 | glycan array binding signal (z-score) [12]: -0.855 | glycan array binding signal (z-score) [13]: 1.16 | glycan array binding signal (z-score) [14]: -0.322 | glycan array binding signal (z-score) [15]: -0.282 | glycan array binding signal (z-score) [16]: -0.483 | glycan array binding signal (z-score) [17]: -0.823 | glycan array binding signal (z-score) [18]: 1.35 | glycan array binding signal (z-score) [19]: 0.399 | glycan array binding signal (z-score) [20]: -0.358 | glycan array binding signal (z-score) [21]: 1.29 | glycan array binding signal (z-score) [22]: -0.701 | glycan array binding signal (z-score) [23]: 1.62 | glycan array binding signal (z-score) [24]: -0.588 | glycan array binding signal (z-score) [25]: -1.39 | glycan array binding signal (z-score) [26]: 0.667 | glycan array binding signal (z-score) [27]: 1.1 | glycan array binding signal (z-score) [28]: 0.922 | glycan array binding signal (z-score) [29]: 0.428 | glycan array binding signal (z-score) [30]: -0.411
